Sequences of proteins named here, by UniProt entry; tags and fusion partners are left off. A change or cut given only in a name is not applied to a line headed by its entry.
UniProt Q13315: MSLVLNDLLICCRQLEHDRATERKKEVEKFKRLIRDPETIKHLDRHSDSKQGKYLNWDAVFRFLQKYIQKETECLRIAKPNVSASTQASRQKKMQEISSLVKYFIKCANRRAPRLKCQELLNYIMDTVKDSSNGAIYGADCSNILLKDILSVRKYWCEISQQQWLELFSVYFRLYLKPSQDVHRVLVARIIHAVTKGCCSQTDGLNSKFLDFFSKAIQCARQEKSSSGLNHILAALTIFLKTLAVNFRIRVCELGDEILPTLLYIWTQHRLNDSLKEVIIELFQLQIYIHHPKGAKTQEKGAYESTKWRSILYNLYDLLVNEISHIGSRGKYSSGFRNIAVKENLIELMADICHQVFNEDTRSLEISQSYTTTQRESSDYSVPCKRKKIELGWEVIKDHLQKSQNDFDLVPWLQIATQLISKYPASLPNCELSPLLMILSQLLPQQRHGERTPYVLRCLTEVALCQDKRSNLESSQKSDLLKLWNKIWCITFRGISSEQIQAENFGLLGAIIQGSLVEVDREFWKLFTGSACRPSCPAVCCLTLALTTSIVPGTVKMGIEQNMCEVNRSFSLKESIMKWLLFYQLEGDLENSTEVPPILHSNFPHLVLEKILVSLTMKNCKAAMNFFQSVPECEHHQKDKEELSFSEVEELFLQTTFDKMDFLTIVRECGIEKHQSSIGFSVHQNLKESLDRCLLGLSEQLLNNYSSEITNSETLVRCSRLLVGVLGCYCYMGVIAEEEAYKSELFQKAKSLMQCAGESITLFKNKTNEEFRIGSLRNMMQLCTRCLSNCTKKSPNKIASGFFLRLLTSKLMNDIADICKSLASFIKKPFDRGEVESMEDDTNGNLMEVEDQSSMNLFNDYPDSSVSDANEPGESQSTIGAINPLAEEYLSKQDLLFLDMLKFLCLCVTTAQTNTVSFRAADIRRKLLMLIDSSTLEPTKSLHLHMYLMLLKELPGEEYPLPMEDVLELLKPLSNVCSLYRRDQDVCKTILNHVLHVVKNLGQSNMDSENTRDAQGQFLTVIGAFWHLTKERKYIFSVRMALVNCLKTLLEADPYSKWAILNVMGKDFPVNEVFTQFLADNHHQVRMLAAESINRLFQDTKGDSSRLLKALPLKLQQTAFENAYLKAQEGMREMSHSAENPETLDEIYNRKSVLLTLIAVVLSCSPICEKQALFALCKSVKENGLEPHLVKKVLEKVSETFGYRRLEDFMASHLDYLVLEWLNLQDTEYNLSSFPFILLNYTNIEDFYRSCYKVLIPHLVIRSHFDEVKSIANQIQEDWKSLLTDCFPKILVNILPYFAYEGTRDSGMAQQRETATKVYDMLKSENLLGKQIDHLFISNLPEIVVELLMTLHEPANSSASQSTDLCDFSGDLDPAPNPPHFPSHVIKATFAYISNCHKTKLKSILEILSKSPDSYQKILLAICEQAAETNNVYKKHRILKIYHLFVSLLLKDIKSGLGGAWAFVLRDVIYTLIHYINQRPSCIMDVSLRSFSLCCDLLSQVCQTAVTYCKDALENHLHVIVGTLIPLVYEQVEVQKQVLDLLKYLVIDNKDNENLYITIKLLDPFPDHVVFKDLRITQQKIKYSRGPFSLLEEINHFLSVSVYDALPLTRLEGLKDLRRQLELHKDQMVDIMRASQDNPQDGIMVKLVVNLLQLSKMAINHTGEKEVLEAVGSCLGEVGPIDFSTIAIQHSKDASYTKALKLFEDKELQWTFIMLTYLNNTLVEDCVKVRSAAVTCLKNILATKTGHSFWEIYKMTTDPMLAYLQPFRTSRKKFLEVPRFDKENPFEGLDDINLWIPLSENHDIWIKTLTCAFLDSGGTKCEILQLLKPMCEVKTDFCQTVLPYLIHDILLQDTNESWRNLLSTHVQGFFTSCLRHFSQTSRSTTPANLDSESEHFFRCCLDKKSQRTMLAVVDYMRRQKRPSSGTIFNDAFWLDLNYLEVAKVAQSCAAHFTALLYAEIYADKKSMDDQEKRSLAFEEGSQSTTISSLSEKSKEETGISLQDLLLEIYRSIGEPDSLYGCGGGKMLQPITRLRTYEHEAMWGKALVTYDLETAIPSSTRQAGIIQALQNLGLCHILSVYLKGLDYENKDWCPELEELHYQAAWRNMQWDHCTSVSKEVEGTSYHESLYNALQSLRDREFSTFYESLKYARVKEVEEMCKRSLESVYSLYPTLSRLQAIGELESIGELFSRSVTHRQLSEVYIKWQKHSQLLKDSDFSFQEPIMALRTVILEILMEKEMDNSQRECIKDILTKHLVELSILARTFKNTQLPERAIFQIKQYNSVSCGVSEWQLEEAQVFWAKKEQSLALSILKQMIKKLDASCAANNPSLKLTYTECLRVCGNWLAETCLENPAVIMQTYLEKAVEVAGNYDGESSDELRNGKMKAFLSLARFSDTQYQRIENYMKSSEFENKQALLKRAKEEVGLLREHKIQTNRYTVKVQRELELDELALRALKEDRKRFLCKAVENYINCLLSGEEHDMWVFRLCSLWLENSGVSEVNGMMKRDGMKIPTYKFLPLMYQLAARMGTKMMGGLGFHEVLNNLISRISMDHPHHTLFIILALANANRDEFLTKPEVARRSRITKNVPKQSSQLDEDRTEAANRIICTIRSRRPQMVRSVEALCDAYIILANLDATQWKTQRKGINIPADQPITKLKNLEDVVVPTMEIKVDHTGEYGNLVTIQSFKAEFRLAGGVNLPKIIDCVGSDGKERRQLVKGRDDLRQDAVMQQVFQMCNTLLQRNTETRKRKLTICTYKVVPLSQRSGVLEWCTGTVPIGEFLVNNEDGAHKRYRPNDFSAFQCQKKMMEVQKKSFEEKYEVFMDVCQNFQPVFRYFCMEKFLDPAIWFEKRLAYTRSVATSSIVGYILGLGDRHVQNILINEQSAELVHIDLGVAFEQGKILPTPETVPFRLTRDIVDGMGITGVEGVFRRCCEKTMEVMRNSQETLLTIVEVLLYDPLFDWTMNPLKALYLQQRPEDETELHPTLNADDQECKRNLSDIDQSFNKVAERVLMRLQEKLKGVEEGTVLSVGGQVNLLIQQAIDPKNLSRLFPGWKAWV
UniProt P56134: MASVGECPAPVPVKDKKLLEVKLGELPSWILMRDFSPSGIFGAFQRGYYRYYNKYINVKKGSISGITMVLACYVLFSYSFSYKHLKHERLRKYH
UniProt Q676U5: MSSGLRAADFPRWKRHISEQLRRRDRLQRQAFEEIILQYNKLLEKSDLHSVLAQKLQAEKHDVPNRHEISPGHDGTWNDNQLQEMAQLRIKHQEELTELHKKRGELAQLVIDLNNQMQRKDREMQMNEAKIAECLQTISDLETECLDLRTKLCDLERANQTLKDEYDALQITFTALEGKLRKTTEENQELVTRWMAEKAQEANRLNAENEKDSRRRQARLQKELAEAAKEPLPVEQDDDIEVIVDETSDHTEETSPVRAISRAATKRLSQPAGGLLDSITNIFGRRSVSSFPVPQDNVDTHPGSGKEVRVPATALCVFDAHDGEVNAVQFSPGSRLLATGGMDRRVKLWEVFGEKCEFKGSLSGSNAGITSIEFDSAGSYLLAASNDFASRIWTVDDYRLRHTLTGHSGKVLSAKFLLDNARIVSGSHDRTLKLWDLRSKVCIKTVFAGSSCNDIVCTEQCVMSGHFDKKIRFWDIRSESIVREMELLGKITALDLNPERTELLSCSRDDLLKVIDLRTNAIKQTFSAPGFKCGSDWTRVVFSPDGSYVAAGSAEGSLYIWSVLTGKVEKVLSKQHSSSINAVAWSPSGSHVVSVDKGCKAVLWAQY
UniProt Q2TAZ0: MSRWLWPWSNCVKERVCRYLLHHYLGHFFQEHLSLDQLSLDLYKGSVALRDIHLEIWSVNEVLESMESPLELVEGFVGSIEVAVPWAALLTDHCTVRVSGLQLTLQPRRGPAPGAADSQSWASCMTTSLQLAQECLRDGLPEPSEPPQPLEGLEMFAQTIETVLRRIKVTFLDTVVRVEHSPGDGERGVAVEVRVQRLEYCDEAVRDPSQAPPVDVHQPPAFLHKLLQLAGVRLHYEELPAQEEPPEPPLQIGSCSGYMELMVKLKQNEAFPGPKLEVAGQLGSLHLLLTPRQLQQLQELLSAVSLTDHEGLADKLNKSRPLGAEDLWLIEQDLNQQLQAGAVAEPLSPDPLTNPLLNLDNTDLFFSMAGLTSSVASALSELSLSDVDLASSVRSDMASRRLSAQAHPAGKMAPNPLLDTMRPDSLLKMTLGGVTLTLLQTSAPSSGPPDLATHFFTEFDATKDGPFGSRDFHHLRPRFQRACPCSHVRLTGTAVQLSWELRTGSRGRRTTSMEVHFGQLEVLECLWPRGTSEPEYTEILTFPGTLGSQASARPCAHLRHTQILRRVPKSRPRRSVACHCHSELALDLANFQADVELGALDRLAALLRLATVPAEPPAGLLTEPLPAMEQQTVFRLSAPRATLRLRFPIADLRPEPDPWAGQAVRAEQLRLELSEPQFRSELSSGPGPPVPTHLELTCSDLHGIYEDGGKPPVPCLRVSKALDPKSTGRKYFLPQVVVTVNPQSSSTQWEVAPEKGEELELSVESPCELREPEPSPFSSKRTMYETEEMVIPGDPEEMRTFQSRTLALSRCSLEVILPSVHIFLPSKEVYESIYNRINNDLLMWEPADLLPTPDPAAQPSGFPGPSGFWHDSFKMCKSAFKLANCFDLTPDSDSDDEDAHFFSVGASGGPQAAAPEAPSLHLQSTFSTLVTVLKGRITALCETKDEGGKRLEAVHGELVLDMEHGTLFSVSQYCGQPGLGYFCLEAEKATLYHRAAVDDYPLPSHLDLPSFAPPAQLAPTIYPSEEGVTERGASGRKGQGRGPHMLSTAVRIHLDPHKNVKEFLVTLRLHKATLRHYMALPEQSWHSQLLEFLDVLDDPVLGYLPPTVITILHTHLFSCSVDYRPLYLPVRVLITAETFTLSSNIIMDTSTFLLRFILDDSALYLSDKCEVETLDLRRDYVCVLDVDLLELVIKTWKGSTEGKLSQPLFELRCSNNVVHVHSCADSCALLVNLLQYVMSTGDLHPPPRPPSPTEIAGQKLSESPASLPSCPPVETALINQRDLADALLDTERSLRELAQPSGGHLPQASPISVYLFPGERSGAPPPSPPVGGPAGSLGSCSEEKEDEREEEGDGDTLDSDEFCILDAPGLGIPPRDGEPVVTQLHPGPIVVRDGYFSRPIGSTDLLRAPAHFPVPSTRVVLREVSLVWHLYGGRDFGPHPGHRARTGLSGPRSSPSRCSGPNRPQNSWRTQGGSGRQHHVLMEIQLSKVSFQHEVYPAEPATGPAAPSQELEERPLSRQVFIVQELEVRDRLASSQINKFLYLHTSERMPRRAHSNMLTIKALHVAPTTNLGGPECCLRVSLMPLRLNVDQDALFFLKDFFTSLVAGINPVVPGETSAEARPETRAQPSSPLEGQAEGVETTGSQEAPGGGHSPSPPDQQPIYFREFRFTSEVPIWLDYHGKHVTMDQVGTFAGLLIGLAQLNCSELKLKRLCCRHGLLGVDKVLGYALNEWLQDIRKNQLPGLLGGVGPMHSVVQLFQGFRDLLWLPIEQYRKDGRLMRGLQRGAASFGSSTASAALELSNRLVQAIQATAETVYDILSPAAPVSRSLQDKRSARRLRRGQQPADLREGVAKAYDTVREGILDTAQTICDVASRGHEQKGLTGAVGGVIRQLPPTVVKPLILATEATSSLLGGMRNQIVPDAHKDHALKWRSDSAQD
UniProt Q9NXU5: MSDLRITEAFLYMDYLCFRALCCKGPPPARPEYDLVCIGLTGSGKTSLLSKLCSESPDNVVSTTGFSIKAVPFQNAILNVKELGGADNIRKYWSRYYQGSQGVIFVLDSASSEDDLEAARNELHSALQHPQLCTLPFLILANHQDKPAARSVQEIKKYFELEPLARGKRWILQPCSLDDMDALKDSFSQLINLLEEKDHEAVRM
UniProt P36404: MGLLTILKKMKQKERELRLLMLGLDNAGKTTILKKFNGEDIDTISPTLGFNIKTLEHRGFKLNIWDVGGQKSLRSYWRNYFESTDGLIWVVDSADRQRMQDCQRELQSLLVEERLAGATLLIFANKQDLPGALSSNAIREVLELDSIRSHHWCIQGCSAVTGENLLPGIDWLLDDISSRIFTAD
UniProt P21281, whole entry, looked up: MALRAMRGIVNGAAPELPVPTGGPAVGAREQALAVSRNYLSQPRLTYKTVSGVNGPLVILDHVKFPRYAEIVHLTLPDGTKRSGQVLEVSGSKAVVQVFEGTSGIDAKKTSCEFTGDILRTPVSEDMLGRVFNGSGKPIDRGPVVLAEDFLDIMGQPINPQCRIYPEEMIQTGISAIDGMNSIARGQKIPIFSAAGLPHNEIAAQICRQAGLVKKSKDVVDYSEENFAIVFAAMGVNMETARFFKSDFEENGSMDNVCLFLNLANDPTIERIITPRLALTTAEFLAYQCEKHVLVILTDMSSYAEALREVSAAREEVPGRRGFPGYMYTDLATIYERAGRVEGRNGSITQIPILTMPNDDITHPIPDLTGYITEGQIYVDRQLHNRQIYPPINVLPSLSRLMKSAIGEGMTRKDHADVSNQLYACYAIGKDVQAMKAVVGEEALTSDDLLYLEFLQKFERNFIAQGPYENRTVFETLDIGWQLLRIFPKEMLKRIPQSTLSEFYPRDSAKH

This is one part of the list.
These targets were tested with NC1(c2ccc(-c3nc4ccn5c(=O)[nH]nc5c4cc3-c3ccccc3)cc2)CCC1 (assay: log2 fold change, soluble protein after heating vs DMSO (PISA); higher = thermal stabilisation; K562 cells, 10 uM, 30 min; active = over 0.2 and 3.5 SD of the protein, either way, in both replicates (recomputed)).
How it was run: (§1)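 K562 cells (2×10^6 cells/mL) were treated with 10 μM compound for 30 min, and aliquots were heated for 3 min over 48°C-58°C. Pooled aliquots were extracted in PBS with 0.5% NP-40 at 4°C, and the supernatant after 21,000xg for 90 min was measured by TMTpro 16plex LC-MS/MS with channel sums equalised. Reported thermal stability, relative to control samples and from duplicates, is a log2 fold change.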
With ASAP1 isoform 2 (UniProt Q9ULH1) the log2 fold change was inactive: -0.174.
In the case of ATP11C (UniProt Q8NB49), the log2 fold change is reported as inactive: -0.039.
With ASF1A (UniProt Q9Y294) the log2 fold change was inactive: -0.041.
In the case of ATM (UniProt Q13315), the log2 fold change is reported as inactive: -0.126.
With ARMC8 (UniProt Q8IUR7) the log2 fold change was inactive: -0.087.
With ATG13 isoform 5 (UniProt O75143) the log2 fold change was inactive: -0.001.
ATIC (UniProt P31939) was tested, and the log2 fold change was inactive: 0.03.
ARPP19 (UniProt P56211) was tested, and the log2 fold change was inactive: -0.019.
ATG4B isoform 2 (UniProt Q9Y4P1) was tested, and the log2 fold change was inactive: -0.401.
With ASH2L (UniProt Q9UBL3) the log2 fold change was inactive: 0.002.
For ASS1 (UniProt P00966), the log2 fold change was inactive: -0.087.
In the case of ARL13B (UniProt Q3SXY8), the log2 fold change is reported as inactive: -0.068.
In the case of ASAH1 isoform 2 (UniProt Q13510), the log2 fold change is reported as inactive: -0.153.
ATP6V1F isoform 2 (UniProt Q16864) was tested, and the log2 fold change was inactive: -0.078.
With ATP5MF (UniProt P56134) the log2 fold change was inactive: 0.033.
ATP5F1E (UniProt P56381) was tested, and the log2 fold change was inactive: -0.008.
With ATP7A isoform 3 (UniProt Q04656) the log2 fold change was inactive: 0.046.

Each target was assayed with NCC(=O)Nc1ccc(-n2nc(C(F)(F)F)cc2-c2ccc3c(ccc4ccccc43)c2)cc1 in the same assay as above.
How it was run: as §1
With ATG9A (UniProt Q7Z3C6) the log2 fold change was inactive: 0.038.
With ASPH (UniProt Q12797) the log2 fold change was inactive: 0.017.
In the case of ATG16L1 (UniProt Q676U5), the log2 fold change is reported as inactive: -0.018.
For ARPC1B (UniProt O15143), the log2 fold change was inactive: 0.189.
With ARPC4 isoform 3 (UniProt P59998) the log2 fold change was inactive: -0.051.
ATP7B (UniProt P35670) was tested, and the log2 fold change was inactive: -0.15.
With ARMT1 (UniProt Q9H993) the log2 fold change was inactive: -0.077.
ATOX1 (UniProt O00244) was tested, and the log2 fold change was inactive: 0.03.
ATP5MPL (UniProt P56378) was tested, and the log2 fold change was inactive: -0.016.
With ATG2A isoform 3 (UniProt Q2TAZ0) the log2 fold change was inactive: -0.016.
ARL15 (UniProt Q9NXU5) was tested, and the log2 fold change was inactive: 0.026.
ATP5F1A (UniProt P25705) was tested, and the log2 fold change was inactive: 0.016.
With ATG2B (UniProt Q96BY7) the log2 fold change was inactive: -0.012.
For ARL2 (UniProt P36404), the log2 fold change was inactive: 0.028.
With ATP6V1C1 (UniProt P21283) the log2 fold change was inactive: -0.09.
With ATP2A2 (UniProt P16615) the log2 fold change was inactive: -0.072.
ATP6V1B2 (UniProt P21281) was tested, and the log2 fold change was inactive: 0.015.
With ATP6V0A1 isoform 3 (UniProt Q93050) the log2 fold change was inactive: 0.008.
With ARPC5 (UniProt O15511) the log2 fold change was inactive: 0.001.
In the case of ATP1B2 (UniProt P14415), the log2 fold change is reported as inactive: 0.02.
In the case of ASNA1 (UniProt O43681), the log2 fold change is reported as inactive: 0.035.
With ATP2A3 isoform 2 (UniProt Q93084) the log2 fold change was inactive: -0.072.
With ASAP1 isoform 2 (UniProt Q9ULH1) the log2 fold change was inactive: -0.058.
For ATP11C (UniProt Q8NB49), the log2 fold change was inactive: -0.026.
For ASF1A (UniProt Q9Y294), the log2 fold change was inactive: -0.019.
With ATM (UniProt Q13315) the log2 fold change was inactive: -0.034.
With ARMC8 (UniProt Q8IUR7) the log2 fold change was inactive: 0.002.
With ATG13 isoform 5 (UniProt O75143) the log2 fold change was inactive: -0.061.
ATIC (UniProt P31939) was tested, and the log2 fold change was inactive: -0.009.
In the case of ARPP19 (UniProt P56211), the log2 fold change is reported as inactive: 0.046.
For ATG4B isoform 2 (UniProt Q9Y4P1), the log2 fold change was inactive: -0.151.
With ASH2L (UniProt Q9UBL3) the log2 fold change was inactive: -0.074.
With ASS1 (UniProt P00966) the log2 fold change was inactive: 0.026.
In the case of ARL13B (UniProt Q3SXY8), the log2 fold change is reported as inactive: -0.049.
In the case of ASAH1 isoform 2 (UniProt Q13510), the log2 fold change is reported as inactive: -0.07.
ATP6V1F isoform 2 (UniProt Q16864) was tested, and the log2 fold change was inactive: 0.143.
With ATP5MF (UniProt P56134) the log2 fold change was inactive: 0.002.
With ATP5F1E (UniProt P56381) the log2 fold change was inactive: 0.005.
With ATP7A isoform 3 (UniProt Q04656) the log2 fold change was inactive: -0.017.
